The supplement of paper PMC3334620
Whole data set: some 33,000 sequences, median “E-score (-0.5 to 0.5)” near -0.015, cut for the highest 2% near 0.3. The list shows a part of the results.

What follows are sequences tested against T1, Abf1 (UniProt P14164) (assay: PBM E-score (8-mer binding enrichment) (E-score (-0.5 to 0.5)); higher = stronger / more preferred TF binding). Conditions: protein concentration: 200 nM; construct: GST-full length.
T1 sequence: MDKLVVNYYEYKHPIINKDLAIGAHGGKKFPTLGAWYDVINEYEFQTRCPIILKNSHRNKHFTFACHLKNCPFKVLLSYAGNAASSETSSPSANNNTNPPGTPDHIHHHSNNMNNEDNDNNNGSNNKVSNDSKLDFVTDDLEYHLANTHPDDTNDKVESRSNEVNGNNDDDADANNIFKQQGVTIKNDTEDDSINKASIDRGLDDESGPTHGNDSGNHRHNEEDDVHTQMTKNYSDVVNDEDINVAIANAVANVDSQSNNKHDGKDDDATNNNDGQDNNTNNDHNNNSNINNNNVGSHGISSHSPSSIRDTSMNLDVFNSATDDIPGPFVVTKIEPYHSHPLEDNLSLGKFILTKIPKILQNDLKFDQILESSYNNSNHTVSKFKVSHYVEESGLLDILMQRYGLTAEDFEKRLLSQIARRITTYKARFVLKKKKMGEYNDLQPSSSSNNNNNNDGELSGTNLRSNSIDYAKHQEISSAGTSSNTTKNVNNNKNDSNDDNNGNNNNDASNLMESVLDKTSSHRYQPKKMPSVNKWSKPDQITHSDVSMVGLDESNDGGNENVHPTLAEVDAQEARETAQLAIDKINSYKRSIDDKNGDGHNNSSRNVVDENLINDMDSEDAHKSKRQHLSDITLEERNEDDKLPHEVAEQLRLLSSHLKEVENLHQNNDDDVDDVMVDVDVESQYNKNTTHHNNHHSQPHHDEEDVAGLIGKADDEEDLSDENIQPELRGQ
Method in brief: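 Bound GST-tagged yeast transcription factors, applied at about 100-200 nM to double-stranded universal all-10-mer Agilent arrays, were detected with fluorescent anti-GST. Scans were normalised with masliner. A modified Wilcoxon-Mann-Whitney statistic, the E-score, was assigned to each ungapped eight-base word pooled with its reverse complement by the Universal PBM Analysis Suite.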

Sequence | PBM E-score
CTGAAACC | 0.0234
GCAAAACC | -0.145
AAACAAAT | 0.21
ACTGATCC | -0.091
AACCACCC | -0.163
GACTATAA | 0.0257
CAGAACGG | 0.096
ACACGTAT | 0.145
CCCTAGAA | 0.0539
CGTCCCGA | 0.0382
ACGATCAC | 0.274
ATGCTGGC | -0.0605
AAGTACCT | 0.108
CGAAATTC | 0.0688
ACGCCGCG | -0.00778
TACGCGGA | 0.0466
CGGAAATA | 0.156
AACTGCTT | -0.0381
AATAGCCC | 0.0317
ATTGGTTA | 0.0166
CCCGAACA | -0.119
GGTTGCAA | -0.0601
AGAATGTA | 0.0866
AGCAAGAG | -0.0245
GCATATGC | -0.0754

Exported with tabs: part of the list above.
Sequence	PBM E-score
ATTGGTTA	0.0166
CCCGAACA	-0.119
GGTTGCAA	-0.0601

Going on with the list.

Sequence | PBM E-score
ACGCCGGC | -0.00479
TACACATA | -0.1
AGGTAGCG | 0.152
AGGGCTGA | 0.0256
ACTGAACA | 0.04
GAGGATAA | 0.0968
CTGCTTTC | 0.0309
ATGGACAC | 0.00876
AAGTAAAT | 0.168
CGGTAGCA | 0.0244
ACGCGGCA | -0.126
AGGGCCGA | -0.0484
GAAAAGAA | -0.155
AGCTGTGC | -0.193
AAGCATGC | -0.0558
CAGGATGC | -0.00529
GTATTTAA | 0.217
GGCACACC | -0.248
CGACTAAG | -0.0693
ATTTTCCC | -0.029
TCTGCAGA | -0.187
TCTACGAA | 0.301
CCATACTA | 0.0734
CTCGTACC | 0.184
AGATCTAG | -0.0922

Sequence | PBM E-score
ATTTGATA | 0.254
AGCATACT | -0.0545
AGTGTCGC | -0.00443
AGTGGGAG | 0.0446
ATACACCA | 0.00822
ATAGATAT | 0.073
ACAACCTG | -0.0236
ACGTAAGG | 0.0863
GCCTCGAC | -0.0443
GGAGAATA | 0.0689
ACCTCATG | -0.044
GCCGCAGC | -0.257
ACCGTAGC | -0.0668
GTAATTAC | 0.0663
GTGTCCAA | 0.027
GTTTTAAA | 0.0969
GCGGGTGA | -0.033
CAGAAGCG | -0.0849
CGTGCGGC | 0.218
TAGTTGCA | -0.0201
GATATTTA | 0.282
CGTCAACC | -0.0433
CTGTTATC | 0.146
ACGCTGGA | 0.025
CAGGGAGG | -0.148

Retrieved one by one from above (2):
Sequence | PBM E-score
ATTTGATA | 0.254
TAGTTGCA | -0.0201

The list goes on:

Sequence | PBM E-score
CCACGACA | 0.0558
ATTCGGTC | 0.0175
GAGACAGA | 0.0348
GGTGGGCA | -0.216
CCACTACG | -0.0806
AAACGTCA | 0.0403
ACGGACGC | 0.00311
ACCGCGCA | 0.0722
GAACGAGA | 0.0551
GTTGGCCA | -0.209
CAACGCGA | -0.0383
CCGCTTCG | 0.0404
AACAAGCA | -0.104
CGGTTGGA | -0.0976
AGTATCAA | 0.247
TATGTAAA | 0.0564
ATCATCAG | 0.16
CCGGCGCG | -0.208
AGATGGTG | -0.195
ATTGAAAT | 0.165
TTTACAAA | 0.0556
ATTGCAGG | -0.0936
CCCCGTGC | 0.0572
CCTTTATA | -0.056
ACATAACG | 0.201

Some of the entries so far, with tabs:
Sequence	PBM E-score
ATGGACAC	0.00876
GGTGGGCA	-0.216
ATTGAAAT	0.165

Following part

Sequence | PBM E-score
AGCCTTTA | -0.129
GTGCGAAC | 0.0503
ATCGCGGA | 0.0336
CTACAGTC | 0.0846
ACCACTCC | -0.236
ACAGGTAT | 0.0772
AGAAGATG | 0.0607
CGCGTACC | -0.0297
TACGACAA | 0.298
AAAAGAAT | 0.243
GACGCGAA | -0.0205
CCATGTTC | 0.0915
AGATCCGG | -0.268
ACGATAGA | 0.21
ACGCACGT | 0.105
GTTTGACA | -0.0939
CCCGCCGC | -0.195
TGAAAGAA | 0.236
TCTAAAAA | 0.0197
ACCTTTTC | -0.0974
CTGCAGTA | -0.173
CATCACCA | 0.176
CGGGTAGA | -0.149
AAGGGGAG | -0.111
CCTCCACG | 0.017

Sequence | PBM E-score
ATTTGCGA | 0.117
CAGCGGCA | -0.248
GCGTATCA | 0.109
AAGTCCAC | -0.198
ACTGAGCG | -0.252
GGCGTGAA | -0.0515
CCACTGTA | 0.0565
AATCGGAC | -0.224
CTAGCCTC | -0.24
GAATTGAA | 0.0262
ACCAGTGA | 0.0668
CGACTTGA | 0.0619
GGCTACAA | -0.165
ACGAATGA | 0.304
ACGACGTG | 0.232
CACACTAG | 0.00749
TGACAGCA | 0.183
ATGGAGCA | -0.0812
GCCCTACC | -0.149
CCGCCGTC | 0.334
GCCTACCC | -0.25
ATCGGAAA | 0.0872
GTTCAAGA | 0.108
GCGGCATA | 0.106
AACTCCTC | -0.145

Sequence | PBM E-score
AGGACATC | 0.113
CAGGCGAG | -0.101
TACTTACA | 0.0659
TAATGAAA | 0.12
ATGGTGGG | -0.331
CGCGCAGA | 0.103
TCGTGAAA | 0.205
TAAATACA | 0.104
GTGACAAA | 0.412
GGACCCGA | -0.246
AACCTTAG | -0.103
AACTCTCG | -0.077
GGACTTTA | -0.0103
TGTGCTAA | 0.0655
AAATAATA | 0.294
AACGTGCT | -0.131
GCACCCGA | -0.146
AGACTTAT | -0.0813
CAGTTATG | -0.103
AGGCGTCG | 0.036
CCCCGCCA | -0.0278
AGTATGCG | 0.00272
